Experimental data from patent US9068161B2, “Laccases and uses thereof” (DEINOVE, priority 2010, dated 2015).

Tests used:
Type in all cases: biochemical
[1] = Laccase assay, substrate ferulic acid; details: 60° C.
Protocol: (§1) Standard assays for laccase activity were performed at the temperature range from 30° C. to 90° C. by measurement of enzymatic oxidation of substrates at appropriate wavelength. The reaction was performed in presence of a substrate concentration range, 0.05 mg/mL of purified enzyme and 1 mM prepared in 0.1M citrate-phosphate buffer pH8.
(§2) Standard assays were performed using the following substrates: 2,6 DMP, 4-methyl DMP, synapic acid, syringic acid, guaiacol, ABTS, paraphenylenediamine and ferulic acid.
(§3) Reagent A (185 μl) was mixed with Reagent B (10 μl). The mixture was equilibrated to 45° C. or 60° C. The absorbance at 470 nm was monitored until constant, using a suitably thermoregulated spectrophotometer. Then Reagent C (5 μl) was added and the increase in A470 nm was recorded for 30 minutes. The ΔA470 nm/minute was obtained using the maximum linear rate for the Test, Control and Blank, Blank being mixture without enzyme and Control being mixture with laccase from Trametes versicolor (T. versicolor, commercial enzyme) replacing Laccase enzyme solution (Reagent C).
(§4) Other substrates, different from 2,6 DMP such as 4-methyl DMP, synapic acid, syringic acid, guaiacol, ABTS, paraphenylenediamine and ferulic acid have also been tested at optimal concentration for each substrate (as shown in Tables 1A and 1B). […]

[2] = Laccase assay, substrate 2,6 DMP; details: 60° C.
Protocol: as §1, §2
2,6 DMP+O2+enzyme→Oxidized 2,6 DMP+2H2O
The assay is performed at T=45° C. and 60° C., pH=8. The absorbance was measured at A470 nm and the measure was carried out using Continuous Spectrophotometric Rate Determination.
as §3, with “C). […]” for “C).”

[3] = Laccase assay, substrate synapic acid; details: 45° C.
Protocol: as §1, §2, §3, §4

[4] = Laccase assay, substrate paraphenylenediamine; details: 45° C.
Protocol: as §1, §2, §3, §4

[5] = Laccase assay, substrate ABTS; details: 60° C.
Protocol: as §1, §2, §3, §4

[6] = Laccase assay, substrate syringic acid; details: 60° C.
Protocol: as §1, §2, §3, §4

[7] = Laccase assay, substrate guaiacol; details: 60° C.
Protocol: as §1, §2, §3, §4

Measured: Opt. pH

B1: Laccase 1: enzyme having laccase activity from Deinococcus cellulolysiticus DRH46, amino acid sequence SEQ ID NO: 2, recombinant with 6(His) tag (protein)
chain: MKQRLTAAALLTALLSSCAMKNPDVISYQDPEPLAGQRSGKAAEFTLTAQKSRLDLAGQSVEALTYNGTFPGPLLTLKAGEDVRITLKNNLSEPTNLHLHGLPLSPEVDDPFVVVPPGGSHTYAFQVPEEVHGTFWYHTHTHGASAAQLFSGLAGPLLVEAAKPNNPIEHMETHTVVFKDLPGAQHADDGVLMNGRENTLLVNGLVSPTLKTENSWVQLRLINASNARYLRLKLDDGLLQVVARDGIDLPGMERAQELLLTPGERADVLVSLQDHQNLKLQNLPYDRGVHSMGSHSGHTESKTAVVLTLQGPQKPGASVPRVETAPPPFLQLQGNEKVRKVILQETMQPVKFFINGRSFDMNRVDFHVSEGSTEIWELQNTTEMDHPFHLHTFPMQLIRIGGKEVPPVWKDTVNIPKNSTVTVAVHFKGFTGKTVFHCHIAEHEEAGMMGLLQVHPSGTALPASLEPIEPTVGPGEDAQHGH
modifications: 6xHis tag; Laccase 1 derived from Deinococcus cellulolyticus DRH46
8: all assays above

B2: Laccase 2: enzyme having laccase activity from Deinococcus cellulolysiticus DRH46, amino acid sequence SEQ ID NO: 4, recombinant with 6(His) tag (protein)
chain: MIRTLTSLTLLTVALTACAPKGSPMTEYHNPAEVQASRTEKGSTFTLTAAETSITLDGKEVKAQLFNQSFPGPQLTLQAGEQVNLTLKNDLREPTNLHLHGLTLPAGVDDPFLQVQPGESHTYSFTVPQGLHGTFWYHTHTHGHLGTQLFQGLAGPLIVEDPTFDSHIQGMETHTVVLKDLPVEVQDSDGTRMNGREGKLLVNGLSSPTLKTESSWVRLRLINASNARYDLLKLSGSAFLHVIAKDGIDLPKTEQVKELLLTPGERADVLISVQDQQDLRLENHPYDRGVHEMDGGHQGHTPSTPEVLLTLQGKKGSVSASVPQPALQPRPFLKVTGNEAIRKVVLQETMQPVKFFINGRTFDMNRVDFHVSEGTTEIWEVENQTEMDHPFHLHTFPVQVLSVNGQEVPPVWKDTVNVPAKAKVQVAVKFEGFTGKTVFHCHIAEHEEEGMMGVLQVHPAGEALPASLTPTLPPAAASEDMPDMPGMDHSGH
modifications: 6xHis tag; Laccase 2 derived from Deinococcus cellulolyticus DRH46
8: all assays above
